Measurements reported in PubChem BioAssay AID504791 (Drosophila RNAi Screening Center, 2011)
The screen tested about 23,000 reagents; below is an unselected part of those that have a named target and a result. Over the whole deposit, 199 (0.86%) are marked active. 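Plate-scaled ratios behind the calls are not deposited; printed light signals are raw; many rows marked increased or decreased are still called inactive.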 A plus sign joins genes that one reagent is predicted to hit.

Purpose: 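Genes whose knock-down strengthens or weakens small-RNA reporter silencing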 (primary screen)
System: Drosophila S2-derived reporter cells
Reagent: long dsRNA against Drosophila genes, about 150-250 ng dsRNA per well (siRNA assay); about 80-120 ng (miRNA assay)
Timing: about 5 days (siRNA assay); about 4 days (miRNA assay)
Treatment: copper sulfate induction of reporters: 25 µM (siRNA assay); 200 mM stated (miRNA assay), 1-2 days before reading
Measured: 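Per-well ratio of Renilla over firefly light, expressed relative to that plate's average ratio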
Direction: siRNA reporter hit score: higher = 3 marks a strong hit with raised ratio; -3 a strong hit with lowered ratio
Call rule: 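a well was a first-pass pick when its plate-scaled ratio rose above 1.5 (siRNA assay) or 1.6 (miRNA assay), or dropped below 0.6; a gene counted only if two separate dsRNAs agreed on retest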

siRNA reporter hit score	stable siRNA reporter change	stable assay Renilla, run 1 (luminescence)	stable assay firefly, run 1 (luminescence)	activity call	gene	DRSC id
		6947	4.07e5	inactive	opm	DRSC20141
		9414	6.04e5	inactive	opm	DRSC22135
	reporter ratio raised past the hit cutoff	7638	2.28e5	inactive	Lasp	DRSC10379
		5167	5.31e5	inactive	CG15760	DRSC19725
		5192	3.65e5	inactive	mdy	DRSC01559
		9916	1.94e6	inactive	mdy	DRSC02250
		4459	4.37e5	inactive	CG33476	DRSC22888
		4647	4.44e5	inactive	CAH4	DRSC22433
		7722	4.06e5	inactive	lap	DRSC12628
		5944	4.92e5	inactive	tey	DRSC11042
		10115	6.05e5	inactive	tey	DRSC21709
		7759	5.27e5	inactive	glob2	DRSC12560
		9061	2.91e5	inactive	Rh3	DRSC16822
		6872	3.45e5	inactive	dpr19	DRSC02237
		7750	4.76e5	inactive	RabGGTa	DRSC12189
		6659	3.44e5	inactive	cmb	DRSC09790
		6819	4.02e5	inactive	side-VIII	DRSC05880
		4847	4.44e5	inactive	side-VIII	DRSC05883
		3968	3.10e5	inactive	side-VIII	DRSC06157
		2511	2.14e5	inactive	side-VIII	DRSC23187
		5931	4.36e5	inactive	CG15641	DRSC19677
		7719	4.09e5	inactive	CG9933	DRSC03276
		7314	4.44e5	inactive	ttm50	DRSC18587
	reporter ratio lowered past the hit cutoff	7195	6.30e5	inactive	Trax	DRSC15709
		6171	3.52e5	inactive	CG12289	DRSC09874
		5327	3.99e5	inactive	CalpC	DRSC19873
		8023	4.29e5	inactive	alpha-Est9	DRSC12621
		5579	5.68e5	inactive	beat-Vb	DRSC12940
		4203	4.96e5	inactive	beat-Vb	DRSC14844
		7174	4.55e5	inactive	beat-Vb	DRSC14845
		6647	3.89e5	inactive	CRAT	DRSC12523
		4639	3.06e5	inactive	CG33251 (retired record) + CG9915	DRSC20217
		5831	4.46e5	inactive	CG15024	DRSC08478
		3704	3.31e5	inactive	VhaAC45RP	DRSC15423
-3	reporter ratio raised past the hit cutoff	9306	2.83e5	active	Prosbeta4	DRSC02603
		7174	3.95e5	inactive	CG10445	DRSC14247
		7292	3.78e5	inactive	Ripalpha	DRSC02657
		5890	4.25e5	inactive	CG34266	DRSC08323
		6171	3.63e5	inactive	rnh1	DRSC07673
		4027	3.38e5	inactive	fry	DRSC08993
		5740	3.69e5	inactive	fry	DRSC10172
		6418	4.85e5	inactive	fry	DRSC10709
		7470	3.05e5	inactive	fry	DRSC10712
		6932	2.99e5	inactive	Or85f	DRSC16769
		7159	3.66e5	inactive	CG5281	DRSC15761
		6952	3.34e5	inactive	CG17801	DRSC15273
		6792	3.45e5	inactive	Ant2	DRSC19330
		4235	4.82e5	inactive	wda	DRSC15579
		8992	6.36e5	inactive	wda	DRSC22351
		5042	2.70e5	inactive	TER94	DRSC07560
		7128	3.74e5	inactive	CG18764	DRSC15391
		6876	4.62e5	inactive	mwh	DRSC08382
		7094	3.55e5	inactive	spag4	DRSC02973
		6116	3.40e5	inactive	pain	DRSC04273
		7554	3.99e5	inactive	CG3597	DRSC00617
		5576	5.72e5	inactive	Fpgs1	DRSC19857
		9505	4.83e5	inactive	CG5171	DRSC02823

5 entries from above, set out differently.
{"gene": "CG15641", "DRSC id": "DRSC19677", "stable assay Renilla, run 1 (luminescence)": 5931, "stable assay firefly, run 1 (luminescence)": 4.36e5, "activity call": "inactive"}
{"gene": "CG9933", "DRSC id": "DRSC03276", "stable assay Renilla, run 1 (luminescence)": 7719, "stable assay firefly, run 1 (luminescence)": 4.09e5, "activity call": "inactive"}
{"gene": "ttm50", "DRSC id": "DRSC18587", "stable assay Renilla, run 1 (luminescence)": 7314, "stable assay firefly, run 1 (luminescence)": 4.44e5, "activity call": "inactive"}
{"gene": "Trax", "DRSC id": "DRSC15709", "stable siRNA reporter change": "reporter ratio lowered past the hit cutoff", "stable assay Renilla, run 1 (luminescence)": 7195, "stable assay firefly, run 1 (luminescence)": 6.30e5, "activity call": "inactive"}
{"gene": "CG12289", "DRSC id": "DRSC09874", "stable assay Renilla, run 1 (luminescence)": 6171, "stable assay firefly, run 1 (luminescence)": 3.52e5, "activity call": "inactive"}
